The source of these data is PMC8032903.

Protein sequences, listed by entry. Tags and fused reporters are not part of them. Lines headed by an entry give the natural chain unless they say otherwise; changes in a name come on top.
UniProt P11308: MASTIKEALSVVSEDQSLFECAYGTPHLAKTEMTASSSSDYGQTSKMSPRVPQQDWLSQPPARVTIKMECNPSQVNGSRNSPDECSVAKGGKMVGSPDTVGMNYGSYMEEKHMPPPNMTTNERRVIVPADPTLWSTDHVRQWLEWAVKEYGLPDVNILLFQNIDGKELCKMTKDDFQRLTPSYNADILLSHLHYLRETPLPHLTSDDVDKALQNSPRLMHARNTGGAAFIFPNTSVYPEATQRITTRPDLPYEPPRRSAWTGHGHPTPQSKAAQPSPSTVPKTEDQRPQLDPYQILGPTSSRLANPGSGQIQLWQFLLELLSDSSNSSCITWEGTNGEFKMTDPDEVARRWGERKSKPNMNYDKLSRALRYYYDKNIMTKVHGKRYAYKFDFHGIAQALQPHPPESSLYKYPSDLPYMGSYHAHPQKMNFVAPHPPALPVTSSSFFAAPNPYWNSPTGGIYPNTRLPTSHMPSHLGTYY

This assay has as its target Flag-ERG (ETS-related gene) (UniProt P11308). Description: co-IP; Flag-ERG and PIAS plasmids co-transfected into HEK293T cells; lysates immunoprecipitated with anti-Flag antibody (protein A agarose), blotted with anti-HA.

No constants are given. Whether binding was seen depends on the method and setting. In cells and extracts the contact can be indirect. A result given as binding can be weak or reduced; the word gives no strength.

B1: PIAS4 (enzyme, UniProt Q8N2W9 1-510)
chain: MAAELVEAKNMVMSFRVSDLQMLLGFVGRSKSGLKHELVTRALQLVQFDCSPELFKKIKELYETRYAKKNSEPAPQPHRPLDPLTMHSTYDRAGAVPRTPLAGPNIDYPVLYGKYLNGLGRLPAKTLKPEVRLVKLPFFNMLDELLKPTELVPQNNEKLQESPCIFALTPRQVELIRNSRELQPGVKAVQVVLRICYSDTSCPQEDQYPPNIAVKVNHSYCSVPGYYPSNKPGVEPKRPCRPINLTHLMYLSSATNRITVTWGNYGKSYSVALYLVRQLTSSELLQRLKTIGVKHPELCKALVKEKLRLDPDSEIATTGVRVSLICPLVKMRLSVPCRAETCAHLQCFDAVFYLQMNEKKPTWMCPVCDKPAPYDQLIIDGLLSKILSECEDADEIEYLVDGSWCPIRAEKERSCSPQGAILVLGPSDANGLLPAPSVNGSGALGSTGGGGPVGSMENGKPGADVVDLTLDSSSSSEDEEEEEEEEEDEDEEGPRPKRRCPFQKGLVPAC
For the molecule B1, the binding entry is on record as “binds”.
